Results reported in patent publication US20240034757A1.
Results are given in words; binding and its absence hold for the method and conditions named.

Chains of the proteins cited; added tags and fusions are not shown. Residues count along the entry.
UniProt P22362, residues 24-96: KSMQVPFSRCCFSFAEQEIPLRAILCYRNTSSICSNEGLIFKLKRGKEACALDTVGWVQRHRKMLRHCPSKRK
UniProt P13501, residues 24-91: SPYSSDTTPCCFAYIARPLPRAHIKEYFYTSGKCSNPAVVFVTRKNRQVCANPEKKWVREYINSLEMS
UniProt Q16663, residues 22-113: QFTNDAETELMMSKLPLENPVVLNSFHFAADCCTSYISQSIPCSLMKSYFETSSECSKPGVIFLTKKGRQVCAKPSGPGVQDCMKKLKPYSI
UniProt O15467, residues 24-120: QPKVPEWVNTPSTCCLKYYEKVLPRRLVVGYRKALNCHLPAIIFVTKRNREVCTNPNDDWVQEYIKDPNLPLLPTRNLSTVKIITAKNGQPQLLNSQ
UniProt Q92583, residues 24-94: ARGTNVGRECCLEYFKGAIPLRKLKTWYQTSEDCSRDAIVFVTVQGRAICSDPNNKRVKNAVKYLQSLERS
UniProt Q99731, residues 22-98: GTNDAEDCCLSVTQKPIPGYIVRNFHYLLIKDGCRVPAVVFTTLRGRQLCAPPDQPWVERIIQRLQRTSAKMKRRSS
UniProt P78556, residues 27-96: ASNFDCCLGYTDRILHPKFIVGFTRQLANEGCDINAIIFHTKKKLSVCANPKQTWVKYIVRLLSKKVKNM
UniProt O00585, residues 24-134: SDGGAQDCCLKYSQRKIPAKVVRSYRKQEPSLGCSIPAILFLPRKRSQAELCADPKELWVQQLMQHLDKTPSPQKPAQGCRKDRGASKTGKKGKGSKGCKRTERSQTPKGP
UniProt O00626, residues 25-93: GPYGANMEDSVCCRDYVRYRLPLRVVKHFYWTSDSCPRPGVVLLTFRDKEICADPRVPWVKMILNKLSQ
UniProt P55773, residues 22-120: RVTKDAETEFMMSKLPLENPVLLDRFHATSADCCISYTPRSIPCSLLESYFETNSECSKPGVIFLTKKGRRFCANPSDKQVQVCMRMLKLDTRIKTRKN
UniProt O00175, residues 27-104: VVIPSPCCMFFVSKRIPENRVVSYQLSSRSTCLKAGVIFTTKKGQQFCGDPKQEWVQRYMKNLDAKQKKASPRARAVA
UniProt Q9Y4X3, residues 25-112: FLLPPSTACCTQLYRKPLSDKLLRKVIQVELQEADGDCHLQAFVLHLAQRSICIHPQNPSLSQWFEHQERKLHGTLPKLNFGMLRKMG
UniProt Q9NRJ3, residues 23-127: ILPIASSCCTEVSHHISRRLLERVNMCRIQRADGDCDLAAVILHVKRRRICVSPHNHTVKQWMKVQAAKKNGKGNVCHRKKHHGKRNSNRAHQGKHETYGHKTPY
UniProt P78423, residues 25-100: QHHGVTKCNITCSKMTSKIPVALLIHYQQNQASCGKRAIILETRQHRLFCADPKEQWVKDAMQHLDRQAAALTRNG
UniProt P09341, residues 35-107: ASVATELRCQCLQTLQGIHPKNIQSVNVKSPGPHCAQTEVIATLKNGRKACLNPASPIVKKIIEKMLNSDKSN
UniProt P19875, residues 35-107: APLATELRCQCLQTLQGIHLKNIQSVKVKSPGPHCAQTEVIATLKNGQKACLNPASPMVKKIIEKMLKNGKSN
UniProt P19876, residues 35-107: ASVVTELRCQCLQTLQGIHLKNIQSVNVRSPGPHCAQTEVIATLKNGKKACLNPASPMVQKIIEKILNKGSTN
UniProt P02776, residues 32-101: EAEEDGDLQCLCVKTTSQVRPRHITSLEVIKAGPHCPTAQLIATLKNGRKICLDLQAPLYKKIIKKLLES
UniProt P42830, residues 41-114: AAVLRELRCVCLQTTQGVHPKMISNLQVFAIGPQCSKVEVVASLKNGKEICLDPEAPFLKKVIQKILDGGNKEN
UniProt P80162, residues 38-114: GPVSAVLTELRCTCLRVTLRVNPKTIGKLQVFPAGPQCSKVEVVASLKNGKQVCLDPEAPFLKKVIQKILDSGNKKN
UniProt P02775, residues 59-128: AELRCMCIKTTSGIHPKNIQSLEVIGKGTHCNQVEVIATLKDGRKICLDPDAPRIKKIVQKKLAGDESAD
UniProt P10145, residues 28-99: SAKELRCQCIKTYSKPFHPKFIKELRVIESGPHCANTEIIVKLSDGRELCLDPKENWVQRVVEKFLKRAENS
UniProt Q07325, residues 23-125: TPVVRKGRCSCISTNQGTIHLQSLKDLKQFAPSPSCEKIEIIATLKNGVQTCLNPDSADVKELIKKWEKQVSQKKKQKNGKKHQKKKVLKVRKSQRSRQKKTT
UniProt P02778, residues 22-98: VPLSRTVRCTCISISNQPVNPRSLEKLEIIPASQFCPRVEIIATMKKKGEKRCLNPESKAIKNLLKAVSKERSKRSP
UniProt O14625, residues 22-94: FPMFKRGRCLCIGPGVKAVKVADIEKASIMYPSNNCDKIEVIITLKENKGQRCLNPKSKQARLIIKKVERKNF
UniProt P48061, residues 22-89: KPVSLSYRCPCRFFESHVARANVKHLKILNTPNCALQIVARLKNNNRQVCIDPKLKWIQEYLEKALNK
UniProt O43927, residues 23-109: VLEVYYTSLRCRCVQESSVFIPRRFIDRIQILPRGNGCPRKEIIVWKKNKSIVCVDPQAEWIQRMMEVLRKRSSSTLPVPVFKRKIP
UniProt O95715, residues 35-111: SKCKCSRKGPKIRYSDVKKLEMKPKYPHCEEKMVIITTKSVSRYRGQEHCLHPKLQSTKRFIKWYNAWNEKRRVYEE
UniProt P55774, residues 21-89: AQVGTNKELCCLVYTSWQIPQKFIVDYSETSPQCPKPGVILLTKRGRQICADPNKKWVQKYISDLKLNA

Key:
[1] = target: CCL1_HUMAN (human) (UniProt P22362); assay: BLI, empty cell the 12th table, row 10, column 11
[2] = target: CCL5_HUMAN (human) (UniProt P13501); assay: BLI, empty cell the 12th table, row 18, column 11
[3] = target: CCL15_HUMAN (human) (UniProt Q16663); assay: BLI, empty cell the 12th table, row 25, column 11
[4] = target: CCL16_HUMAN (human) (UniProt O15467); assay: BLI, empty cell the 12th table, row 26, column 11
[5] = target: CCL17_HUMAN (human) (UniProt Q92583); assay: BLI, empty cell the 12th table, row 27, column 11
[6] = target: CCL19_HUMAN (human) (UniProt Q99731); assay: BLI, empty cell the 12th table, row 29, column 11
[7] = target: CCL20_HUMAN (human) (UniProt P78556); assay: BLI, empty cell the 12th table, row 30, column 11
[8] = target: CCL21_HUMAN (human) (UniProt O00585); assay: BLI, empty cell the 12th table, row 32, column 11
[9] = target: CCL22_HUMAN (human) (UniProt O00626); assay: BLI, empty cell the 12th table, row 33, column 11
[10] = target: CCL23_HUMAN (human) (UniProt P55773); assay: BLI, empty cell the 12th table, row 34, column 11
[11] = target: CCL24_HUMAN (human) (UniProt O00175); assay: BLI, empty cell the 12th table, row 35, column 11
[12] = target: CCL27_HUMAN (human) (UniProt Q9Y4X3); assay: BLI, empty cell the 12th table, row 38, column 11
[13] = target: CCL28_HUMAN (human) (UniProt Q9NRJ3); assay: BLI, empty cell the 12th table, row 40, column 11
[14] = target: CX3CL1_HUMAN (human) (UniProt P78423); assay: BLI, empty cell the 12th table, row 41, column 11
[15] = target: CXCL1_HUMAN (human) (UniProt P09341); assay: BLI, empty cell the 12th table, row 42, column 11
[16] = target: CXCL2_HUMAN (human) (UniProt P19875); assay: BLI, empty cell the 12th table, row 43, column 11
[17] = target: CXCL3_HUMAN (human) (UniProt P19876); assay: BLI, empty cell the 12th table, row 44, column 11
[18] = target: CXCL4_HUMAN (human) (UniProt P02776); assay: BLI, empty cell the 12th table, row 45, column 11
[19] = target: CXCL5_HUMAN (human) (UniProt P42830); assay: BLI, empty cell the 12th table, row 46, column 11
[20] = target: CXCL6_HUMAN (human) (UniProt P80162); assay: BLI, empty cell the 12th table, row 47, column 11
[21] = target: CXCL7_HUMAN (human) (UniProt P02775); assay: BLI, empty cell the 12th table, row 48, column 11
[22] = target: CXCL8_HUMAN (human) (UniProt P10145); assay: BLI, empty cell the 12th table, row 49, column 11
[23] = target: CXCL9_HUMAN (human) (UniProt Q07325); assay: BLI, empty cell the 12th table, row 50, column 11
[24] = target: CXCL10_HUMAN (human) (UniProt P02778); assay: BLI, empty cell the 12th table, row 51, column 11
[25] = target: CXCL11_HUMAN (human) (UniProt O14625); assay: BLI, empty cell the 12th table, row 52, column 11
[26] = target: CXCL12_HUMAN (human) (UniProt P48061); assay: BLI, empty cell the 12th table, row 53, column 11
[27] = target: CXCL13_HUMAN (human) (UniProt O43927); assay: BLI, empty cell the 12th table, row 54, column 11
[28] = target: CXCL14_HUMAN (human) (UniProt O95715); assay: BLI, empty cell the 12th table, row 55, column 11
[29] = target: T1, XCL1_HUMAN (human) (UniProt P47992); assay: BLI, empty cell the 12th table, row 59, column 11
T1 sequence: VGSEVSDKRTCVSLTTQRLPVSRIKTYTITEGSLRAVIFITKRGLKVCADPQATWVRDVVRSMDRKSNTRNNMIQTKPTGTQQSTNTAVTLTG

[30] = target: CCL1_HUMAN (human) (UniProt P22362); assay: BLI, empty cell the 12th table, row 10, column 10
[31] = target: CCL5_HUMAN (human) (UniProt P13501); assay: BLI, empty cell the 12th table, row 18, column 10
[32] = target: CCL15_HUMAN (human) (UniProt Q16663); assay: BLI, empty cell the 12th table, row 25, column 10
[33] = target: CCL16_HUMAN (human) (UniProt O15467); assay: BLI, empty cell the 12th table, row 26, column 10
[34] = target: CCL17_HUMAN (human) (UniProt Q92583); assay: BLI, empty cell the 12th table, row 27, column 10
[35] = target: CCL18_HUMAN (human) (UniProt P55774); assay: BLI, empty cell the 12th table, row 28, column 10
[36] = target: CCL19_HUMAN (human) (UniProt Q99731); assay: BLI, empty cell the 12th table, row 29, column 10
[37] = target: CCL20_HUMAN (human) (UniProt P78556); assay: BLI, empty cell the 12th table, row 30, column 10
[38] = target: CCL21_HUMAN (human) (UniProt O00585); assay: BLI, empty cell the 12th table, row 32, column 10
[39] = target: CCL22_HUMAN (human) (UniProt O00626); assay: BLI, empty cell the 12th table, row 33, column 10
[40] = target: CCL23_HUMAN (human) (UniProt P55773); assay: BLI, empty cell the 12th table, row 34, column 10
[41] = target: CCL24_HUMAN (human) (UniProt O00175); assay: BLI, empty cell the 12th table, row 35, column 10
[42] = target: CCL27_HUMAN (human) (UniProt Q9Y4X3); assay: BLI, empty cell the 12th table, row 38, column 10
[43] = target: CCL28_HUMAN (human) (UniProt Q9NRJ3); assay: BLI, empty cell the 12th table, row 40, column 10
[44] = target: CX3CL1_HUMAN (human) (UniProt P78423); assay: BLI, empty cell the 12th table, row 41, column 10
[45] = target: CXCL1_HUMAN (human) (UniProt P09341); assay: BLI, empty cell the 12th table, row 42, column 10
[46] = target: CXCL2_HUMAN (human) (UniProt P19875); assay: BLI, empty cell the 12th table, row 43, column 10
[47] = target: CXCL3_HUMAN (human) (UniProt P19876); assay: BLI, empty cell the 12th table, row 44, column 10
[48] = target: CXCL4_HUMAN (human) (UniProt P02776); assay: BLI, empty cell the 12th table, row 45, column 10
[49] = target: CXCL5_HUMAN (human) (UniProt P42830); assay: BLI, empty cell the 12th table, row 46, column 10
[50] = target: CXCL6_HUMAN (human) (UniProt P80162); assay: BLI, empty cell the 12th table, row 47, column 10
[51] = target: CXCL7_HUMAN (human) (UniProt P02775); assay: BLI, empty cell the 12th table, row 48, column 10
[52] = target: CXCL8_HUMAN (human) (UniProt P10145); assay: BLI, empty cell the 12th table, row 49, column 10
[53] = target: CXCL9_HUMAN (human) (UniProt Q07325); assay: BLI, empty cell the 12th table, row 50, column 10
[54] = target: CXCL10_HUMAN (human) (UniProt P02778); assay: BLI, empty cell the 12th table, row 51, column 10
[55] = target: CXCL11_HUMAN (human) (UniProt O14625); assay: BLI, empty cell the 12th table, row 52, column 10
[56] = target: CXCL12_HUMAN (human) (UniProt P48061); assay: BLI, empty cell the 12th table, row 53, column 10
[57] = target: CXCL13_HUMAN (human) (UniProt O43927); assay: BLI, empty cell the 12th table, row 54, column 10
[58] = target: CXCL14_HUMAN (human) (UniProt O95715); assay: BLI, empty cell the 12th table, row 55, column 10
[59] = target: T1, XCL1_HUMAN (human); assay: BLI, empty cell the 12th table, row 59, column 10

Measured: binding

B1: P1181_AMBMA (protein)
chain: EEREDDNDYGGGCPFVVLGNGTHAKPAGCSHLCNGAPETLDNIECYNVTEEVAKRMTPDIPYTCWLGWCSKGECKRDNRTEVCYRGSERE
no binding (tested: 300 nM): [1] | [2] | [3] | [4] | [5] | [6] | [7] | [8] | [9] | [10] | [11] | [12] | [13] | [14] | [15] | [16] | [17] | [18] | [19] | [20] | [21] | [22] | [23] | [24] | [25] | [26] | [27] | [28] | [29]

B2: P983_AMBCA (protein)
chain: EDTGTEDDFDYGNTGCPFPVLGNYKSNMTKPVGCKNKCGSGYEVLNDTTPCYVIDQKVFNNMVPLRQYSKCPLGFCENGECKPNDQAEDCYKGREEQK
no binding (tested: 300 nM): [30] | [31] | [32] | [33] | [34] | [35] | [36] | [37] | [38] | [39] | [40] | [41] | [42] | [43] | [44] | [45] | [46] | [47] | [48] | [49] | [50] | [51] | [52] | [53] | [54] | [55] | [56] | [57] | [58] | [59]
